Reference: PMC7819943, “Rice protein-binding microarrays: a tool to detect cis-acting elements near promoter regions in rice”
Some of the results follow.

target: T1, OsSMF1 (Oryza sativa, UniProt Q6ZLB0 1-436); assay: protein-binding microarray (RPBM); PBS, 2% BSA, 51.3 ng/ul salmon testes DNA, 50 uM zinc acetate, 200 nM TF, 25 C, 1 h; high values mean tight binding; conditions: protein: recombinant; tags: N-terminal polyhistidine and DsRed monomer fusion (pET32a); chain copies: 2; label: CyDye5-dUTP incorporated in the synthesized complementary strand; 3' TTTTT single-stranded linker to array surface; dsDNA, one strand shown
T1 sequence: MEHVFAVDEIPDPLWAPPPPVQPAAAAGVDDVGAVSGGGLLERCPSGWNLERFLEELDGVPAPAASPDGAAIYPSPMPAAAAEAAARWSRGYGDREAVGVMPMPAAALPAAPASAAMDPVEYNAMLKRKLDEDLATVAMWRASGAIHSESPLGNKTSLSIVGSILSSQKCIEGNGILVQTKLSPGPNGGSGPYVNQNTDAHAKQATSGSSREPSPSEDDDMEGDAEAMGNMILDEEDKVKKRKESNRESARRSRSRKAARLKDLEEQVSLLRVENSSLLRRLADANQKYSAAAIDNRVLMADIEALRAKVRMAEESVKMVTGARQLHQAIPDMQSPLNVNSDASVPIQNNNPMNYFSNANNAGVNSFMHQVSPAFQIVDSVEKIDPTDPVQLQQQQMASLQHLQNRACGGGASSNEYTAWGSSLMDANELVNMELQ
In short: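 In PBS with 2% BSA, salmon testes DNA and 50 µM zinc acetate, 200 nM protein was incubated on a custom Agilent array at 25 °C for 1 h and then washed off. The array had been made double-stranded by primer extension with Cy5-dUTP and blocked with 2% BSA. The proteins were transcription factors fused N-terminally to polyhistidine and DsRed, expressed in E. coli BL21-CodonPlus and purified on Ni–NTA. The binding signal is per-feature fluorescence intensity (arbitrary units) from an Axon 4000B scanner.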

| Sequence | binding signal |
| --- | --- |
| GCTACATGCTAATTGTGTATATCTAACATGCGCTGACGGCCGGAGTCACCTAGTGCAG | 4080 fluorescence intensity (a.u.) |
| TATGGTTTTATGTTATTATTGATATATGAAGTACATTTATCGGAGTCACCTAGTGCAG | 3590 fluorescence intensity (a.u.) |
| GATGGGAAGGCCGCGCCGCGTTGACGTGGGCTGCGGACTGCGGAGTCACCTAGTGCAG | 8060 fluorescence intensity (a.u.) |
| GGAAGATTAGCTTGCCACCTCATTAATATTTTCAGAAATACGGAGTCACCTAGTGCAG | 4090 fluorescence intensity (a.u.) |
| ACCGTAAAAGAAAATTGAACTGACTAGATCGGCCGAGCAACGGAGTCACCTAGTGCAG | 3180 fluorescence intensity (a.u.) |
| GGAATTTGCAGACATGTCATCAGCCAGCGTGGCTGAAGAACGGAGTCACCTAGTGCAG | 3670 fluorescence intensity (a.u.) |
| CCTGTCGATCCATCGTTGCCACGTCGATCCGCACCTCCGTCGGAGTCACCTAGTGCAG | 23400 fluorescence intensity (a.u.) |
| CGGCGACGTCTGATCCGCCATGAGAGCGAGCAGTTTGTTCCGGAGTCACCTAGTGCAG | 3140 fluorescence intensity (a.u.) |
| AATCGGCCGCCGGGCACCTGACCTGACCTGACCTCTCTTCCGGAGTCACCTAGTGCAG | 3150 fluorescence intensity (a.u.) |
| CTAATGGGAGCACCATCAGTGTTGGCATTTGCACATGCCACGGAGTCACCTAGTGCAG | 3280 fluorescence intensity (a.u.) |
| TATATTTACACGGGTAAGCAACTTCCTTTTCAAGTAGAACCGGAGTCACCTAGTGCAG | 18700 fluorescence intensity (a.u.) |
| TCAGGAGGCTCCTCCTCGACAGCATCAGTAAGCTTCGGGGCGGAGTCACCTAGTGCAG | 3570 fluorescence intensity (a.u.) |
| AACGCCCTCCCCGACGCGGTCACCCGGCGCCTGACGCGGCCGGAGTCACCTAGTGCAG | 4320 fluorescence intensity (a.u.) |
| GCCGCCGCCACCGCCACCGCCACCGCCCACCTCCGCCGCCCGGAGTCACCTAGTGCAG | 3540 fluorescence intensity (a.u.) |
| ATGTTGACTGGACTAGCACGTGTACGCCACGTAGACCAAACGGAGTCACCTAGTGCAG | 4790 fluorescence intensity (a.u.) |
| GGCGTCGCGGCGCTGGCGGTGTACGCCGCCGGCGGCGCCGCGGAGTCACCTAGTGCAG | 3780 fluorescence intensity (a.u.) |
| AGGACAATGCAATGTGTACACCGTGGAGATGCCCAACAGTCGGAGTCACCTAGTGCAG | 3780 fluorescence intensity (a.u.) |
| TCACACATGATCGTATCAATATCCATCGACACGTGCACATCGGAGTCACCTAGTGCAG | 6520 fluorescence intensity (a.u.) |
| AGGTCGAGGGAGAAGGGGTCGAACACGTTGCTGCGGCGGACGGAGTCACCTAGTGCAG | 4140 fluorescence intensity (a.u.) |
| CTGCTCCTAGTCACACTTGACAGTTCAGCTTCAGCTCCTCCGGAGTCACCTAGTGCAG | 6360 fluorescence intensity (a.u.) |
| CTGGATGGTGGTGGTCGAACTATCAGGGGCGTTATGCATACGGAGTCACCTAGTGCAG | 3680 fluorescence intensity (a.u.) |
| CCCACCACACACCCGGCCCCACATGTCATCCACCCATCCACGGAGTCACCTAGTGCAG | 4500 fluorescence intensity (a.u.) |
| TCCTGTCGTTTACGTTTACGTGTACTTTCACTGTGCACGTCGGAGTCACCTAGTGCAG | 4160 fluorescence intensity (a.u.) |
| GAGGGAAATCGATCTGAGAGGGAGGAGGGGAGGAGGGGAGCGGAGTCACCTAGTGCAG | 3900 fluorescence intensity (a.u.) |
| CAAGTGGTTTTGTGTGGTGGAGTGCGATGGCAGGGACGGGCGGAGTCACCTAGTGCAG | 3480 fluorescence intensity (a.u.) |
| CGGATCCATCCATCTCCCCAATCCCCTGTAACACCCGTACCGGAGTCACCTAGTGCAG | 3170 fluorescence intensity (a.u.) |
| GAGATCTGGTTGGTTCGTGTCACTGCCAATGTGGCAAATACGGAGTCACCTAGTGCAG | 7660 fluorescence intensity (a.u.) |

Quoted from the listing.
binding signal with GCTACATGCTAATTGTGTATATCTAACATGCGCTGACGGCCGGAGTCACCTAGTGCAG reads 4080 fluorescence intensity (a.u.)
binding signal with AGGACAATGCAATGTGTACACCGTGGAGATGCCCAACAGTCGGAGTCACCTAGTGCAG reads 3780 fluorescence intensity (a.u.)
binding signal with AATCGGCCGCCGGGCACCTGACCTGACCTGACCTCTCTTCCGGAGTCACCTAGTGCAG reads 3150 fluorescence intensity (a.u.)
binding signal with TCAGGAGGCTCCTCCTCGACAGCATCAGTAAGCTTCGGGGCGGAGTCACCTAGTGCAG reads 3570 fluorescence intensity (a.u.)

Going on with the list:

| Sequence | binding signal |
| --- | --- |
| ACGTCCCCGCCACGCAAGCGCCCATCCACCCGTCCATCCCCGGAGTCACCTAGTGCAG | 17300 fluorescence intensity (a.u.) |
| CAAGCAATACCTATTTCCTGCACATGTCATCACCTCTTTTCGGAGTCACCTAGTGCAG | 6300 fluorescence intensity (a.u.) |
| TCAGATAAAATCAGGGACAATACATAAAGGAAGGAATCTTCGGAGTCACCTAGTGCAG | 29400 fluorescence intensity (a.u.) |
| TGGATTAGGAATCAACGGCAGAGATGATGCAAGGGAGTTTCGGAGTCACCTAGTGCAG | 3330 fluorescence intensity (a.u.) |
| CGCTTTATCTTTTCATACGAATGATGTGTCGACGTTATCTCGGAGTCACCTAGTGCAG | 3500 fluorescence intensity (a.u.) |
| ATTTAAATTATGGCTTTAGTGCCACGCTGTACTGTAGTAGCGGAGTCACCTAGTGCAG | 5480 fluorescence intensity (a.u.) |
| GTGCGGCTAAACGTTCCACCGCCACAGCTGACACGATCGTCGGAGTCACCTAGTGCAG | 3640 fluorescence intensity (a.u.) |
| GCACCAGCTAGACGCGGAGTCCGCGTGTCGAGCAGACGAGCGGAGTCACCTAGTGCAG | 3890 fluorescence intensity (a.u.) |
| TCGATCGGCTTCACGCACGCCCAGCACTATATAACCAGCTCGGAGTCACCTAGTGCAG | 4310 fluorescence intensity (a.u.) |
| GGTTTTGGAGGGCGGTTTCGCTGATGTGGCGGTGTTGACTCGGAGTCACCTAGTGCAG | 14200 fluorescence intensity (a.u.) |
| TGCTTCTTCTCGCTCCGAACAGGGAGGACGGTGACGCGGTCGGAGTCACCTAGTGCAG | 3500 fluorescence intensity (a.u.) |
| TGCGGATCTAACATGCGGGCCCGACTGTCTGCTGCTTCACCGGAGTCACCTAGTGCAG | 3290 fluorescence intensity (a.u.) |
| CTACACGCCGCCCGCCAGCTCAGTTCACCGGATCCCCGGGCGGAGTCACCTAGTGCAG | 4200 fluorescence intensity (a.u.) |
| CAAATTAGCCACGTAAGTGCCACTTCAGCTGAAATGATAGCGGAGTCACCTAGTGCAG | 9580 fluorescence intensity (a.u.) |
| TAGGTTAATTTTCGTGTCAGATCAAACTCAGCGCTCCGTTCGGAGTCACCTAGTGCAG | 4360 fluorescence intensity (a.u.) |
| GATCGGATCGGATTAGCCGCGCTATAGCGTCAGGGGATCACGGAGTCACCTAGTGCAG | 3210 fluorescence intensity (a.u.) |
| CGCACCGTTGCAGCCCGCCCACTCGCTGACTCGCTCCAGCCGGAGTCACCTAGTGCAG | 4160 fluorescence intensity (a.u.) |
| GGGGAAGGAGAAGAGGAAGGAGAGGGGAGGAGGAGGAGGGCGGAGTCACCTAGTGCAG | 3770 fluorescence intensity (a.u.) |
| ACTAGGCCAACCTGACACGACGCACAAGACAAAACCTTCGCGGAGTCACCTAGTGCAG | 3620 fluorescence intensity (a.u.) |
| CCAGCCCCGCGCCGGCCGCCGTCCGTCCGCCCGCGCGCGGCGGAGTCACCTAGTGCAG | 3540 fluorescence intensity (a.u.) |
| AGGAGACCGATGGGGACATGGGGCGTGGCGGGAGAGGATTCGGAGTCACCTAGTGCAG | 3240 fluorescence intensity (a.u.) |
| GGGGCGAGGCGTGTGTCAGGCCGCCTGTTGCCACCTAACCCGGAGTCACCTAGTGCAG | 4540 fluorescence intensity (a.u.) |
| TATTAATTAAAATTAGATCTTCTCTTCTAGGCTTTTAAAACGGAGTCACCTAGTGCAG | 30400 fluorescence intensity (a.u.) |
| AAGGAAGGAAGGAGGAGGATGCTGACGTGGCGAAGCGCAACGGAGTCACCTAGTGCAG | 20400 fluorescence intensity (a.u.) |
| TGAGGATGCAAGAGAATCCTAAAAGGTAAGGCAGCATGCACGGAGTCACCTAGTGCAG | 44100 fluorescence intensity (a.u.) |
| GCAACGTGACTCCACACTCTTTTGTTCGTTACCCATTCCACGGAGTCACCTAGTGCAG | 3530 fluorescence intensity (a.u.) |
| CCCGCCGACACGTTGGCCTCGCCCATCAGGTACACCACGCCGGAGTCACCTAGTGCAG | 4010 fluorescence intensity (a.u.) |
